# Measurements: the supplement of paper PMC8728848
# The other results are listed elsewhere or left out.
# Experiments:
# Assay in all cases: glycan array binding signal (z-score within array); higher = stronger binding
# Conditions in all cases: glycan notation: IUPAC condensed, linker removed
# Fuc(a1-2)Gal = target: Fuc(a1-2)Gal
# How it was run: (§1)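 Arrays were curated from the Consortium for Functional Glycomics database, 3228 in total, and kept only where the protein sequence was available. Binding is expressed as a within-array Z-score. This score was averaged across arrays of the same protein sequence at different concentrations or buffers and across linkers, and negative values can be read as non-binding.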
# Fuc(a1-2)Gal(b1-3)GalNAc = target: Fuc(a1-2)Gal(b1-3)GalNAc
# How it was run: as §1
# [1] = target: Fuc(a1-2)Gal(b1-3)GalNAc(a1-3)[Fuc(a1-2)]Gal(b1-4)Glc
# How it was run: as §1
# [2] = target: Fuc(a1-2)Gal(b1-3)GalNAc(a1-3)[Fuc(a1-2)]Gal(b1-4)GlcNAc
# How it was run: as §1
# [3] = target: Fuc(a1-2)Gal(b1-3)GalNAc(b1-3)Gal
# How it was run: as §1
# [4] = target: Fuc(a1-2)Gal(b1-3)GalNAc(b1-3)Gal(a1-4)Gal(b1-4)Glc
# How it was run: as §1
# [5] = target: Fuc(a1-2)Gal(b1-3)GalNAc(b1-4)[Neu5Ac(a2-3)]Gal(b1-4)Glc
# How it was run: as §1
# Fuc(a1-2)Gal(b1-3)GlcNAc = target: Fuc(a1-2)Gal(b1-3)GlcNAc
# How it was run: as §1
# [6] = target: Fuc(a1-2)Gal(b1-3)GlcNAc(b1-2)Man(a1-3)[Fuc(a1-2)Gal(b1-3)GlcNAc(b1-2)Man(a1-6)]Man(b1-4)GlcNAc(b1-4)GlcNAc
# How it was run: as §1
# [7] = target: Fuc(a1-2)Gal(b1-3)GlcNAc(b1-3)Gal(b1-4)Glc
# How it was run: as §1
# [8] = target: Fuc(a1-2)Gal(b1-3)GlcNAc(b1-3)[Fuc(a1-3)[Gal(b1-4)]GlcNAc(b1-6)]Gal(b1-4)Glc
# How it was run: as §1
# [9] = target: Fuc(a1-2)Gal(b1-3)[Fuc(a1-4)]GlcNAc
# How it was run: as §1
# [10] = target: Fuc(a1-2)Gal(b1-3)[Fuc(a1-4)]GlcNAc(b1-2)Man(a1-3)[Fuc(a1-2)Gal(b1-3)[Fuc(a1-4)]GlcNAc(b1-2)Man(a1-6)]Man(b1-4)GlcNAc(b1-4)GlcNAc
# How it was run: as §1
# [11] = target: Fuc(a1-2)Gal(b1-3)[Fuc(a1-4)]GlcNAc(b1-3)[Fuc(a1-3)[Gal(b1-4)]GlcNAc(b1-6)]Gal(b1-4)Glc
# How it was run: as §1
# [12] = target: Fuc(a1-2)Gal(b1-3)[Fuc(a1-4)]GlcNAc(b1-3)[Gal(b1-4)GlcNAc(b1-6)]Gal(b1-4)Glc
# How it was run: as §1
# Fuc(a1-2)Gal(b1-4)Glc = target: Fuc(a1-2)Gal(b1-4)Glc
# How it was run: as §1
# Fuc(a1-2)Gal(b1-4)Glc6S = target: Fuc(a1-2)Gal(b1-4)Glc6S
# How it was run: as §1
# Fuc(a1-2)Gal(b1-4)GlcNAc = target: Fuc(a1-2)Gal(b1-4)GlcNAc
# How it was run: as §1
# [13] = target: Fuc(a1-2)Gal(b1-4)GlcNAc(b1-2)Man(a1-3)[Fuc(a1-2)Gal(b1-4)GlcNAc(b1-2)Man(a1-6)]Man(b1-4)GlcNAc(b1-4)GlcNAc
# How it was run: as §1
# [14] = target: Fuc(a1-2)Gal(b1-4)GlcNAc(b1-3)Gal(b1-4)GlcNAc
# How it was run: as §1
# [15] = target: Fuc(a1-2)Gal(b1-4)GlcNAc(b1-3)Gal(b1-4)GlcNAc(b1-3)Gal(b1-4)GlcNAc
# How it was run: as §1
# [16] = target: Fuc(a1-2)Gal(b1-4)GlcNAc(b1-3)GalNAc
# How it was run: as §1
# [17] = target: Fuc(a1-2)Gal(b1-4)GlcNAc6S
# How it was run: as §1
# [18] = target: Fuc(a1-2)Gal(b1-4)[Fuc(a1-3)]GlcNAc
# How it was run: as §1
# [19] = target: Fuc(a1-2)Gal(b1-4)[Fuc(a1-3)]GlcNAc(b1-2)Man(a1-3)[Fuc(a1-2)Gal(b1-4)[Fuc(a1-3)]GlcNAc(b1-2)Man(a1-6)]Man(b1-4)GlcNAc(b1-4)GlcNAc
# How it was run: as §1
# [20] = target: Fuc(a1-2)Gal(b1-4)[Fuc(a1-3)]GlcNAc(b1-3)Gal(b1-4)[Fuc(a1-3)]GlcNAc
# How it was run: as §1
# [21] = target: Fuc(a1-2)Gal(b1-4)[Fuc(a1-3)]GlcNAc(b1-3)Gal(b1-4)[Fuc(a1-3)]GlcNAc(b1-3)Gal(b1-4)[Fuc(a1-3)]GlcNAc
# How it was run: as §1
# Fuc(a1-2)Gal6S(b1-4)Glc = target: Fuc(a1-2)Gal6S(b1-4)Glc
# How it was run: as §1
# [22] = target: Fuc(a1-2)Gal6S(b1-4)Glc6S
# How it was run: as §1
# [23] = target: Fuc(a1-2)Gal6S(b1-4)GlcNAc
# How it was run: as §1
binder,measurement,setting,value
"SRS2 (Toxoplasma gondii), O15695 (protein) MATRASLARQKTGAACLAVLTASPSVVAAKPWKRWVGVSVILASAFAVGVSAGPPYRYEPEKFTCRPKKGILSQWVSLLYQVQHNITFACEEATPVPTTLISEEHGLMVCAENMTPEECEANPAPLSAFLPGATKEWVTGDSVLTGLKISVPESQYPANAKSFRVGCRHNTKTGNTCMLTIHVEPRDPAVERQEARCSYTENSTLPKIFVTKDSNTMTLACGPHGAPMPESYTENYCSTPDTCDEKPFTSVIPGYLSKWFFGDPKSPLGARVRIPPEQIPSSPQINYFGCTGPTEGEGPKYNCTVPVPLGGGDPSEGSRPGGGSGGGKRGGGQGGGGSLAGFDFRQGSARHSLPSRMALSASALLAMTALAY",glycan array binding signal (z-score),Fuc(a1-2)Gal,0.535
same,glycan array binding signal (z-score),Fuc(a1-2)Gal(b1-3)GalNAc,0.187
same,glycan array binding signal (z-score),[1],-0.306
same,glycan array binding signal (z-score),[2],0.792
same,glycan array binding signal (z-score),[3],-0.963
same,glycan array binding signal (z-score),[4],0.231
same,glycan array binding signal (z-score),[5],-0.451
same,glycan array binding signal (z-score),Fuc(a1-2)Gal(b1-3)GlcNAc,0.051
same,glycan array binding signal (z-score),[6],0.704
same,glycan array binding signal (z-score),[7],-0.479
same,glycan array binding signal (z-score),[8],0.061
same,glycan array binding signal (z-score),[9],-0.636
same,glycan array binding signal (z-score),[10],0.148
same,glycan array binding signal (z-score),[11],0.122
same,glycan array binding signal (z-score),[12],-0.45
same,glycan array binding signal (z-score),Fuc(a1-2)Gal(b1-4)Glc,-0.631
same,glycan array binding signal (z-score),Fuc(a1-2)Gal(b1-4)Glc6S,0.222
same,glycan array binding signal (z-score),Fuc(a1-2)Gal(b1-4)GlcNAc,-0.585
same,glycan array binding signal (z-score),[13],1.07
same,glycan array binding signal (z-score),[14],0.699
same,glycan array binding signal (z-score),[15],-0.192
same,glycan array binding signal (z-score),[16],-0.7
same,glycan array binding signal (z-score),[17],0.345
same,glycan array binding signal (z-score),[18],0.367
same,glycan array binding signal (z-score),[19],0.238
same,glycan array binding signal (z-score),[20],-0.404
same,glycan array binding signal (z-score),[21],-0.401
same,glycan array binding signal (z-score),Fuc(a1-2)Gal6S(b1-4)Glc,-0.803
same,glycan array binding signal (z-score),[22],0.237
same,glycan array binding signal (z-score),[23],0.801

# 9 neighbouring entries from above, quoted:
binder,measurement,setting,value
"SRS2 (Toxoplasma gondii), O15695 (protein) MATRASLARQKTGAACLAVLTASPSVVAAKPWKRWVGVSVILASAFAVGVSAGPPYRYEPEKFTCRPKKGILSQWVSLLYQVQHNITFACEEATPVPTTLISEEHGLMVCAENMTPEECEANPAPLSAFLPGATKEWVTGDSVLTGLKISVPESQYPANAKSFRVGCRHNTKTGNTCMLTIHVEPRDPAVERQEARCSYTENSTLPKIFVTKDSNTMTLACGPHGAPMPESYTENYCSTPDTCDEKPFTSVIPGYLSKWFFGDPKSPLGARVRIPPEQIPSSPQINYFGCTGPTEGEGPKYNCTVPVPLGGGDPSEGSRPGGGSGGGKRGGGQGGGGSLAGFDFRQGSARHSLPSRMALSASALLAMTALAY",glycan array binding signal (z-score),Fuc(a1-2)Gal(b1-4)GlcNAc,-0.585
same,glycan array binding signal (z-score),[13],1.07
same,glycan array binding signal (z-score),[14],0.699
same,glycan array binding signal (z-score),[15],-0.192
same,glycan array binding signal (z-score),[16],-0.7
same,glycan array binding signal (z-score),[17],0.345
same,glycan array binding signal (z-score),[18],0.367
same,glycan array binding signal (z-score),[19],0.238
same,glycan array binding signal (z-score),[20],-0.404
